The assay has as its target Flag-PCNA (UniProt P12004). Description: co-IP; Flag-PCNA precipitated from lysate of transfected cells with anti-FLAG M2 agarose beads (4 °C, 4 h; 20 mM Tris-HCl pH 7.5, 150 mM NaCl, 0.5% NP-40 lysis buffer), eluted with 3x Flag peptide, immunoblot for XPF; cells treated with or without 10 μM FEN1 inhibitor LNT-1 for 16 h (more XPF with the inhibitor).

Amino acid sequences for entries named in this document (tags omitted).
UniProt P12004: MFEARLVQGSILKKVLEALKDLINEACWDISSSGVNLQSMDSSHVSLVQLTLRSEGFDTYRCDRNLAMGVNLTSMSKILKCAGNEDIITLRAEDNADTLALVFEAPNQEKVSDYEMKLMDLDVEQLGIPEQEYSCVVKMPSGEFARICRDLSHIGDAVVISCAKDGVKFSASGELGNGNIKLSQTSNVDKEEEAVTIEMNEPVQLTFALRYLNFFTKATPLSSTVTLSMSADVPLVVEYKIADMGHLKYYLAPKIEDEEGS

Results are given in words; binding and its absence hold for the method and conditions named. Binding seen in cells or lysates may run through a third protein. Some entries that bind do so weakly or less than the wild type.

B1: XPF (enzyme, UniProt Q92889 1-916)
chain: MESGQPARRIAMAPLLEYERQLVLELLDTDGLVVCARGLGADRLLYHFLQLHCHPACLVLVLNTQPAEEEYFINQLKIEGVEHLPRRVTNEITSNSRYEVYTQGGVIFATSRILVVDFLTDRIPSDLITGILVYRAHRIIESCQEAFILRLFRQKNKRGFIKAFTDNAVAFDTGFCHVERVMRNLFVRKLYLWPRFHVAVNSFLEQHKPEVVEIHVSMTPTMLAIQTAILDILNACLKELKCHNPSLEVEDLSLENAIGKPFDKTIRHYLDPLWHQLGAKTKSLVQDLKILRTLLQYLSQYDCVTFLNLLESLRATEKAFGQNSGWLFLDSSTSMFINARARVYHLPDAKMSKKEKISEKMEIKEGEETKKELVLESNPKWEALTEVLKEIEAENKESEALGGPGQVLICASDDRTCSQLRDYITLGAEAFLLRLYRKTFEKDSKAEEVWMKFRKEDSSKRIRKSHKRPKDPQNKERASTKERTLKKKKRKLTLTQMVGKPEELEEEGDVEEGYRREISSSPESCPEEIKHEEFDVNLSSDAAFGILKEPLTIIHPLLGCSDPYALTRVLHEVEPRYVVLYDAELTFVRQLEIYRASRPGKPLRVYFLIYGGSTEEQRYLTALRKEKEAFEKLIREKASMVVPEEREGRDETNLDLVRGTASADVSTDTRKAGGQEQNGTQQSIVVDMREFRSELPSLIHRRGIDIEPVTLEVGDYILTPEMCVERKSISDLIGSLNNGRLYSQCISMSRYYKRPVLLIEFDPSKPFSLTSRGALFQEISSNDISSKLTLLTLHFPRLRILWCPSPHATAELFEELKQSKPQPDAATALAITADSETLPESEKYNPGPQDFLLKMPGVNAKNCRSLMHHVKNIAELAALSQDELTSILGNAANAKQLYDFIHTSFAEVVSKGKGKK
For B1, the binding result is “binds”.

These data come from doi:10.1101/2025.10.24.684453.
